{
  "source": "patent US6645949B1",
  "about": "“Toxicity of boron compounds to certain arthropods” (University of Florida, priority 2000, dated 2003)",
  "system": "Diamond Back Moth (DBM; Plutella xylostella)",
  "test": "Control of diamond back moth and inhibition of egg deposition, cage test with sugar pads",
  "type": "in vivo",
  "details": "in 10% sucrose",
  "procedure": "On day one, six cages (24″ cube) were set up with five virgin DBM females and five virgin DBM males, one cabbage seedling, and one sugar pad (10% sucrose) in each cage. The sugar solution in three cages also contained 4% sodium tetraborate (4 g+96 ml, w:v water). The virgin adult DBM were obtained by isolating colony pupae individually in vials two days prior. The adults emerged one day prior to day one and on day one. They were provided a 10% sugar solution with or without sodium tetraborate, as soon as they emerged, by placing the vials with cloth bottoms on cotton pads.\nThe cages were placed in environmental rooms where the temperature was 25-26° C. and the day length was 14 hours.\nSugar pads were a single layer of rolled cotton approximately 8 cm square. Each pad was soaked in the appropriate solution, placed in the bottom of a petri dish (95×15 mm), and the excess water was pressed out. Each pad held about 30 ml of solution.\nThe cabbage seedlings were in Descn. No. 12 plastic pots. The surface of the soil was covered with a thin layer of Plaster of Paris.\nOn each of days two, three, four, five, and six, the sugar pads and plants were changed (once) between 1:00 p.m. and 5:00 p.m.",
  "note": "For at least one compound, name, drawing or mass did not settle the structure.",
  "data": [
    {"smiles": "O=BOB(O)OB(O)OB=O", "note": "[Sodium tetraborate, sodium tetraborate]", "values": [
      {"measurement": "egg deposition in surviving females (conclusion in words)", "value": "delay/cessation of egg deposition"},
      {"measurement": "mortality of P. xylostella adults (conclusion in words)", "value": "killed males and females"}
    ]}
  ]
}
